The values that follow come from US8524863B2, “Amyloid-beta peptide crystal structure” (Commonwealth Scientific and Industrial Research Organisation, priority 2008, dated 2013).

A short description of the series: Western blot / SDS-PAGE assessment of dimerisation and tetramerisation of recombinant Aβ-IgNAR proteins. As to conditions: for dimerization by Western blot: recombinant protein from E. coli periplasmic space. Background: A western blot detects proteins with antibodies after separation by electrophoresis.

B1: 37D-4: Aβ-IgNAR variant with Leu34Pro ("Wurth") mutation (protein)
VHH: AWVDQTPRTATKETGESLTINCVLRDASFELKDTGWYRTKLGSTNEQSISIGGRYVETVNKGSKSFSLRISDLRVEDSGTYKCQAFYVFFAEDVGSNKGAIIGPMVGGVVIGGEKGAGTALTVKAAADYKDDDDKAADYKDDDDK
B1: the “dimerization by Western blot” value is “non-dimerizing”. Also, where the note is “upon affinity purification”, the “resistance of dimer to β-mercaptoethanol treatment” value is recorded as “not resistant to β-mercaptoethanol treatment”.

B2: Aβ-IgNAR-G1: fusion of amyloid β-peptide Aβ(18-41) within CDR3 loop of IgNAR 12Y-2, FLAG × 2 tag (protein)
VHH: AWVDQTPRTATKETGESLTINCVLRDASFELKDTGWYRTKLGSTNEQSISIGGRYVETVNKGSKSFSLRISDLRVEDSGTYKCQAFYVFFAEDVGSNKGAIIGLMVGGVVIGGEKGAGTALTVKAAADYKDDDDKAADYKDDDDK
modifications: FLAG x2 tag
notes: fusion of amyloid β-peptide Aβ(18-41) within CDR3 loop of IgNAR 12Y-2, FLAG × 2 tag
Turning to B2, under “affinity-purified, absence of heating/reducing agent”, the “tetrameric species by SDS-PAGE” value was “formation of tetrameric (arrowed) species”.

B3: 12Y-2: wild type shark IgNAR single variable domain antibody, FLAG × 2 tag (protein)
VHH: AWVDQTPRTATKETGESLTINCVLRDASFELKDTGWYRTKLGSTNEQSISIGGRYVETVNKGSKSFSLRISDLRVEDSGTYKCQAFYSLPLGDYNYSLLFRGEKGAGTALTVKAAADYKDDDDKAADYKDDDDK
modifications: FLAG x2 tag
notes: wild type shark IgNAR single variable domain antibody, FLAG × 2 tag
On to B3, for which the “dimerization by Western blot” value is listed as “non-dimerizing”.
